These are yes or no findings as the source states them, for the method shown.
Molecular target: CSP-2r (reduced and alkylated)
Assay: sedimentation equilibrium (AUC), 5 C, self-association

- binding: no binding
Binder: CGGEIRALKYEIARLKQGGGGKKRALEQKIAALEGGC (terminal Cys residues reduced and alkylated (iodoacetamide)) [CSP-2r (reduced and alkylated)]
